# About 22,000 (6.9%) of roughly 320,000 compounds were called active. Inconclusive means that the source gave no clear call. Such entries were picked first, then a sample of the others. Calls follow the shape of the dose curve; as a rule, active = well fitted inhibition curve with a large enough effect; inconclusive = small, poorly fitted or top-dose-only effect, or another doubt; inactive = no such curve, though single readings can be large or run the other way. Where the call is inconclusive, the potency comes from a doubtful curve fit.
# Assay: Primary qHTS for delayed death inhibitors of the malarial parasite plastid, 96 hour incubation
# Details: P. falciparum luciferase reporter growth; series mostly up to 28.7 µM; activity change, negative = inhibition: at the top concentration
# In short: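 P. falciparum expressing integrated firefly luciferase grown in erythrocytes (2% hematocrit, 0.05% parasitemia final) with compounds for 96 hours at 37 C, 5% CO2. Growth inhibition read as loss of luminescence after adding luciferase detection reagent.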
# % is scaled to controls: 0 for no effect and ±100 for the full control effect; potency is read from the fitted curve at half-maximal effect.
SMILES,"activity change, negative = inhibition",Potency
CCCOc1ccc2c(CC)cc(=O)oc2c1C,inactive: 10.3%,
O=C(CC1Nc2ccccc2NC1=O)NCCCN1CCCCCC1 (configuration not stated),,"inconclusive: 10.4 µM [inhibitor, single point]"
CC(C)Oc1ccc(C(CC(=O)O)NC(=O)C2CCCCC2)cc1 (configuration not stated),,"inconclusive: 18.5 µM [inhibitor, partial curve, poor fit]"
CC1=NNC(=O)C1CCC(=O)N/N=C/c1ccco1 (configuration not stated),,"inconclusive: 18.5 µM [inhibitor, single point]"
Cc1cc(N(C)C)c(C#N)c(NCc2ccccc2)n1,,"inconclusive: 8.28 µM [inhibitor, partial curve, poor fit]"
Cc1ccc(-n2cc(CN3CCC(CO)(Cc4ccccc4)CC3)cn2)cc1,inactive: -10.5%,
Cc1ccc(CCN2C(=O)CCC2(C)C(=O)NC2CCCC2)cc1 (configuration not stated),inactive: -9.28%,
CC(=O)c1cccc(S(=O)(=O)N2CCC(C(=O)Nc3cccc(C(=O)NC4CC4)c3)CC2)c1,,"inconclusive: 14.7 µM [inhibitor, partial curve]"
CCN(CC)c1nc2n(c(=O)n1)CCN2CC,,"inconclusive: 9.28 µM [inhibitor, single point]"
COc1ccc(N2Cc3ccccc3C2)cc1Cl,inactive: 27.4%,
COc1ccc(-n2nc3c(c2NC(=O)c2ccc(Br)o2)CS(=O)(=O)C3)cc1,,"inconclusive: 18.5 µM [inhibitor, single point]"
C=CCc1cc(Cl)ccc1OCCNCCN1CCOCC1,,"inconclusive: 10.4 µM [inhibitor, single point]"
COc1ccc(OC)c(S(=O)(=O)NC(N)=NCCc2ccccc2)c1,,"inconclusive: 0.0033 µM [inhibitor, full curve, poor fit]"
O=C1N/C(=C/c2cccs2)C(=O)N1Cc1ccccc1F,,"inconclusive: 16.5 µM [inhibitor, single point]"
CN(C)C(=S)NC(=O)C(c1ccccc1)c1ccccc1,inactive: -57.1% [at 1.15 µM],
Cc1ccc(/C(O)=C2/C(=O)C(=O)N(CCCn3ccnc3)C2c2ccccn2)cc1 (configuration not stated),,"inconclusive: 0.0041 µM [inhibitor, full curve, poor fit]"
COC(=O)C1=C(c2ccc(F)cc2F)C[C@@H]2CC[C@H]1N2C(=O)NCc1ccc(C(F)(F)F)cc1,,"inconclusive: 5.86 µM [inhibitor, partial curve]"
CC(C)c1ccc(C(=O)NCc2ccc(Cl)cc2)cc1,inactive: 0%,
CCO[C@H]1OC(C(=O)N2CCCCCCC2)=C[C@@H](c2csc3ccccc23)[C@@H]1CCCO,,"inconclusive: 4.65 µM [inhibitor, partial curve, poor fit]"
Cc1ccc(C(c2ccc(C)o2)c2cccc([N+](=O)[O-])c2O)o1,,active: 4.65 µM
CSc1ccccc1OCc1cc(C(=O)NCCC2=CCCCC2)no1,inactive: 3.6%,
O=[N+]([O-])c1cc(Cl)c(Cl)c(Cl)c1Cl,,"inconclusive: 13.1 µM [inhibitor, single point]"
CC(=O)N1c2ccc(S(=O)(=O)N3CCCC(C(=O)Nc4ccc(C)cc4C)C3)cc2CC1C (configuration not stated),,"inconclusive: 9.28 µM [inhibitor, partial curve]"
O=C(NCc1ccccc1)C(c1ccc(Cl)cc1)N(C(=O)c1csnn1)C1CC1 (configuration not stated),,"inconclusive: 18.5 µM [inhibitor, single point]"

SMILES,"activity change, negative = inhibition",Potency
O=C1CSC(=S)N1c1ccc(O)cc1,,"inconclusive: 11.7 µM [inhibitor, single point]"
Cc1cc(C(=O)Nc2nnc(C3CC3)s2)c(C)s1,inactive: 249%,
CN(Cc1ccccc1)C(=O)CCCn1c(=O)c2cccn2c2cccnc21,inactive: -17.4%,
COc1ccc(S(=O)(=O)Cc2ccc(C(=O)NCc3ccccc3OC)o2)cc1,,"inconclusive: 18.5 µM [inhibitor, single point]"
COc1ccc(Cc2nnc(SC(C)C(=O)Nc3ccc(F)cc3Cl)o2)cc1 (configuration not stated),,"inconclusive: 11.7 µM [inhibitor, single point]"
Cc1cccc(C)c1NC(=O)CN(C)S(=O)(=O)c1ccc(-c2ccc(=O)[nH]n2)s1,inactive: 3.19%,
Cc1ccc(S(=O)(=O)CC(c2ccccc2)N2CCCCC2)cc1 (configuration not stated),,active: 10.4 µM
CC(C)C(C(=O)NCC1CCCO1)N(C(=O)CNS(=O)(=O)c1ccccc1)C1CCCCC1 (configuration not stated),inactive: 24.9%,
Cc1cc(C)c(Cn2cnc(-c3ccc([N+](=O)[O-])cc3)c2)c(C)c1,,"inconclusive: 0.147 µM [inhibitor, full curve]"
O=C(NNC(=O)c1ccccc1[N+](=O)[O-])c1ccco1,inactive: 0%,
O=C(Nc1cc(Cl)ccc1Cl)N1CCCC1,,"inconclusive: 18.5 µM [inhibitor, partial curve, poor fit]"
CCN1C(=O)C(=C/C=C/c2ccco2)C(=O)N(CC)C1=S,inactive: 432%,
CCCCCc1nc2c(C#N)c(-c3ccc(Cl)cc3)ccn2n1,,"inconclusive: 18.5 µM [inhibitor, single point]"
O=C(CSc1nc2ccccc2[nH]1)Nc1ccc2c(c1)CCC2,inactive: -11.7%,
O=C(CCCNS(=O)(=O)c1ccc(F)cc1)Nc1ccc(F)cc1,inactive: -4.89%,
CCC(=O)c1cn(CC(=O)Nc2ccccc2)c2ccccc12,,"inconclusive: 14.7 µM [inhibitor, single point]"
Cc1cccc(N=Cc2c(O)n(-c3ccccc3C)c(=O)[nH]c2=O)c1,inactive: 6.7%,
COC1(OC)N=C(N)C2(C#N)C(c3ccccc3)NC(C)=CC12C#N (configuration not stated),,"inconclusive: 18.5 µM [inhibitor, single point]"
Cc1c(Cl)cccc1NC(=O)CNC(=O)c1cn(-c2ccccc2)nc1-c1cccnc1,,"inconclusive: 13.1 µM [inhibitor, single point]"
CN(c1ccccc1)S(=O)(=O)c1ccc(Cl)c(C(=O)Nc2ccc(-c3nc4ccccc4[nH]3)cc2)c1,,"inconclusive: 9.28 µM [inhibitor, partial curve, poor fit]"
O=C(O)c1ccccc1Nc1cccc(OCc2ccc3ccccc3n2)c1,inactive: -11.8%,
CCCC1=Nc2cc(C(=O)N3CCN(c4ccccn4)CC3)ccc2Sc2ccc(C)cc21,,"inconclusive: 4.65 µM [inhibitor, partial curve]"
O=C(COc1ccc(Br)cc1)N1CCN(C2CCCC2)CC1,,"inconclusive: 14.7 µM [inhibitor, single point]"
Cc1csc(Nc2ccccc2)n1,inactive: 75.5%,

SMILES,"activity change, negative = inhibition",Potency
COc1ccc(S(=O)(=O)Nc2ccccc2N2CCOCC2)cc1OC,,"inconclusive: 10.4 µM [inhibitor, partial curve, poor fit]"
CC(=O)c1cc(Cc2csc(C(C)=O)c2)cs1,,"inconclusive: 5.22 µM [inhibitor, full curve, poor fit]"
Cc1ccc(N2CCN(CCCN3C(=O)C4CCCN4C3=O)CC2)cc1 (configuration not stated),inactive: -41.9%,
COc1ccc(-c2cc(C(=O)N3CC(C)CC(C)C3)c3ccccc3n2)cc1OC (configuration not stated),,active: 10.4 µM
C=CCn1c(C)cc(C(=O)COC(=O)/C=C/c2cccc(OC)c2)c1C,inactive: 2.69%,
COC1=C(OC)C(=O)C(C/C=C(\C)CC/C=C(\C)CC/C=C(\C)CC/C=C(\C)CC/C=C(\C)CC/C=C(\C)CC/C=C(\C)CC/C=C(\C)CC/C=C(\C)CCC=C(C)C)=C(C)C1=O,inactive: -1.51%,
CCC1Oc2ccccc2N(CC(=O)Nc2ccc3c(c2)OCCO3)C1=O (configuration not stated),inactive: -11.5%,
CC(C(=O)OCC(=O)N1CCN(c2ccccc2)CC1)N1C(=O)c2ccccc2C1=O (configuration not stated),,"inconclusive: 11.7 µM [inhibitor, single point]"
CN(C)C(=O)c1ccc(NC(=O)CSc2nnc(-c3ccc4c(c3)OCO4)o2)cc1,,"inconclusive: 1.65 µM [inhibitor, partial curve, poor fit]"
CCOC(=O)N1CCC(NC(=O)CN2C(=O)CSc3ncccc32)CC1,inactive: 12%,
CCc1ccc(S(=O)(=O)NCCOc2cccc3cccnc23)cc1,,"inconclusive: 9.28 µM [inhibitor, partial curve, poor fit]"
COCCNC(=S)N/N=C/c1ccc(OCc2ccc(C(=O)OC)cc2)cc1,inactive: 11.2%,
CCCCN1C(=O)C(NC(C)=O)c2cc(Br)ccc21 (configuration not stated),,"inconclusive: 7.38 µM [inhibitor, partial curve, poor fit]"
CN(C)/C=N/c1cnc(C(=O)c2ccc(Cl)cc2)n1C,inactive: 5.02%,
COc1ccc(C)cc1NC(=S)Nc1ccccc1SC,,"inconclusive: 13.1 µM [inhibitor, single point]"
CCOC(=O)c1sc(NC(=O)C(CC)Sc2nnc3c4ccccc4n(C(C)C)c3n2)nc1C (configuration not stated),,"inconclusive: 8.28 µM [inhibitor, partial curve, poor fit]"
O=C(Nc1cccc(C(=O)N2CCCc3ccccc32)c1)c1ccccc1,,active: 4.65 µM
COc1cc(NC(=O)C(c2ccccc2)c2ccccc2)c(C(=O)O)cc1OC,,"inconclusive: 18.5 µM [inhibitor, single point]"
C=CCn1c(COc2ccc(OC)cc2)nnc1SCn1nnc2ccccc2c1=O,,"inconclusive: 14.7 µM [inhibitor, single point]"
CCOc1ccc(N(CC(=O)OC)S(=O)(=O)c2c(C)noc2C)cc1,,"inconclusive: 9.28 µM [inhibitor, single point]"
COc1cc(C(=S)N2CCOCC2)cc(OC)c1OC(=O)Cc1ccccc1,,"inconclusive: 0.465 µM [inhibitor, full curve, poor fit]"
CCOC(=O)c1ccccc1NC(=O)c1cn(CC)c2nc(C)ccc2c1=O,inactive: -5.41%,
Cc1ccc(C)c2c1cc(C)c1nnc(SCC(=O)N3CCCc4ccccc43)n12,inactive: 47.6%,
CCn1c(SCC(=O)Nc2nc3ccc(OC)cc3s2)nnc1-c1ccoc1C,,"inconclusive: 0.0029 µM [inhibitor, full curve, poor fit]"

# Some of these compounds in order of heavy-atom count, falling.
SMILES,"activity change, negative = inhibition",Potency
CCOC(=O)c1sc(NC(=O)C(CC)Sc2nnc3c4ccccc4n(C(C)C)c3n2)nc1C (configuration not stated),,"inconclusive: 8.28 µM [inhibitor, partial curve, poor fit]"
CC(C(=O)OCC(=O)N1CCN(c2ccccc2)CC1)N1C(=O)c2ccccc2C1=O (configuration not stated),,"inconclusive: 11.7 µM [inhibitor, single point]"
COc1cc(NC(=O)C(c2ccccc2)c2ccccc2)c(C(=O)O)cc1OC,,"inconclusive: 18.5 µM [inhibitor, single point]"
COc1cc(C(=S)N2CCOCC2)cc(OC)c1OC(=O)Cc1ccccc1,,"inconclusive: 0.465 µM [inhibitor, full curve, poor fit]"
COc1ccc(S(=O)(=O)Nc2ccccc2N2CCOCC2)cc1OC,,"inconclusive: 10.4 µM [inhibitor, partial curve, poor fit]"
CCc1ccc(S(=O)(=O)NCCOc2cccc3cccnc23)cc1,,"inconclusive: 9.28 µM [inhibitor, partial curve, poor fit]"

# Reference: PubChem BioAssay AID504834 (National Center for Advancing Translational Sciences (NCATS), 2011)
